# No constants are given. Whether binding was seen depends on the method and setting. Binding seen in cells or lysates may run through a third protein. Some binding calls cover weakened binding; strength is not graded here.
# Chains of the proteins cited; added tags and fusions are not shown.
# UniProt P53742: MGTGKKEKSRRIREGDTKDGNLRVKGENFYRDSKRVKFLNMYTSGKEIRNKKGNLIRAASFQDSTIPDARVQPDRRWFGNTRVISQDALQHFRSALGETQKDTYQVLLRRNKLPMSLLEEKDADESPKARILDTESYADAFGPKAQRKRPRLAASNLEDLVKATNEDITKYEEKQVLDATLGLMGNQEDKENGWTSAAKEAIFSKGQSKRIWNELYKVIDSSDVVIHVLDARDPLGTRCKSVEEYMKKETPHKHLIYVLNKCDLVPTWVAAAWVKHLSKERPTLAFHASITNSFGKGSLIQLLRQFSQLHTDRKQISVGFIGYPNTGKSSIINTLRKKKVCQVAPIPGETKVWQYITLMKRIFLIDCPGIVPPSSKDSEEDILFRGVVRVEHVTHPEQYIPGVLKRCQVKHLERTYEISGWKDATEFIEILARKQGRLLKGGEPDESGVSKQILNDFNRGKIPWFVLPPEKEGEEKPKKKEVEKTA
# UniProt Q12522: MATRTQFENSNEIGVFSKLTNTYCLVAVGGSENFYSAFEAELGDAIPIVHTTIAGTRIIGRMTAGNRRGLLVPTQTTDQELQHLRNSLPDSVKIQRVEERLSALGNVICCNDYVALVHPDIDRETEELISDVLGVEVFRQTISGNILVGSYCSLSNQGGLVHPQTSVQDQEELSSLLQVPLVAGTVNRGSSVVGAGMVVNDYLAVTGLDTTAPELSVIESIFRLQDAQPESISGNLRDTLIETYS
# Target: T1, Bud20-TAP (S. cerevisiae) (UniProt Q08004)
# T1 sequence: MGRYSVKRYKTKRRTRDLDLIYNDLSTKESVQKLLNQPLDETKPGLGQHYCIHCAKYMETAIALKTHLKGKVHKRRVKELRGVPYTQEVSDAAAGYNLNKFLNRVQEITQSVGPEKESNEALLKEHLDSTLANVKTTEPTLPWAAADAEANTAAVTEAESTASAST
# Assay: co-IP; affinity purification of pre-60S particles via Bud20-TAP from S. cerevisiae crm1^T539C (untreated, LmB and/or diazaborine; ARX1 or Δarx1 background), SDS-PAGE and western blotting
row,Substance,binding
1,Nog2 (from UniProt P53742 1-486),binds
2,Tif6 on the pre-60S particle (from UniProt Q12522 1-245),binds

# — paper PMC9507969
